# Values joined by “and” are separate entries in the source; they are usually repeats but may differ in a detail not shown here. Equal values may be shown once. Read-outs that look alike come from different tables or passages of the source. Further values from the same series stand in other lists.
# Test system: Streptococcus mutans biofilms
# Settings: individual samples 1-6, medium replaced after biofilm formation, further 24 hours
# From the text: FIGS. 3 to 6 show the experimental results in which Streptococcus mutans strains are actually used. Streptococcus mutans is a facultative anaerobe and a gram-positive streptococcus. It produces insoluble, sticky glucans that stick to tooth surfaces. It is one of the bacteria that mainly cause dental caries. THB (TODD-HEWITT BROTH) supplemented with 2% (w/v) sucrose was used as the medium. Sucrose is a sugar composed of the monosaccharides glucose and fructose with an α-1,2-glycosidic linkage and one of the disaccharides. THB manufactured by Becton, Dickinson and Company was used. For sucrose, “CASRN” manufactured by FUJIFILM Wako Pure Chemical Corporation was used. The plate used for culture was a Thermo Scientific Nunclon Delta Surface 96 well. The incubator used was a Panasonic multi-gas incubator MCO-5MUV-PJ. Culturing was conducted at 37° C. under an atmosphere of 5% CO2 gas, 5% O2 gas and 90% N2 gas.
# Devices and the like used to measure residual biofilms are described below. For staining, 0.1% Crystal Violet from FUJIFILM Wako Pure Chemical Corporation was used. It was dissolved in distilled water to 0.1% (w/v).
# Life Technologies EVOS XL Core was used as the microscope for photography. […] Co., Ltd. was used as the absorption spectrometer. The data processing software was “SF6” and the absorbance wavelength was 590 nm.
# Streptococcus mutans was diluted in 2% sucrose-containing THB and 10 inoculated samples of 100 μL each were plated onto cell culture plates (Thermo Scientific Nunclon Delta Surface 96well). The samples were then cultured in a multi-gas incubator for 24 hours to allow biofilms to form on the bottom of each plate.
# The media were removed and the plates were washed with distilled water 24 hours after the start of cultivation. […] The samples were further cultured in a multi-gas incubator for 24 hours. After culturing, the plates were washed with distilled water and stained with 0.1% Crystal Violet solution for 10 minutes. After staining, the plates were washed again with distilled water, dried and then observed and photographed using a bright field inverted microscope.
compound,measurement,setting,value
[2H]OS(=O)(=O)O[2H] [deuterated sulfuric acid (D2SO4)],Absorbance,pH 2.0,1.108 and 1.005 and 0.982
same,Absorbance,pH 2.3,1.005 and 1.237 and 1.077
same,Absorbance,pH 2.7,1.111 and 1.078 and 1.010
same,Absorbance,pH 3.3,1.176 and 1.191 and 1.094
same,Absorbance,pH 3.7,1.134 and 1.094 and 1.102
